Binding data for five molecules are collected here from article PMC8461307.

Chains of the proteins cited; added tags and fusions are not shown. Lines headed by an entry give the natural chain unless they say otherwise; changes in a name come on top.
UniProt P01024: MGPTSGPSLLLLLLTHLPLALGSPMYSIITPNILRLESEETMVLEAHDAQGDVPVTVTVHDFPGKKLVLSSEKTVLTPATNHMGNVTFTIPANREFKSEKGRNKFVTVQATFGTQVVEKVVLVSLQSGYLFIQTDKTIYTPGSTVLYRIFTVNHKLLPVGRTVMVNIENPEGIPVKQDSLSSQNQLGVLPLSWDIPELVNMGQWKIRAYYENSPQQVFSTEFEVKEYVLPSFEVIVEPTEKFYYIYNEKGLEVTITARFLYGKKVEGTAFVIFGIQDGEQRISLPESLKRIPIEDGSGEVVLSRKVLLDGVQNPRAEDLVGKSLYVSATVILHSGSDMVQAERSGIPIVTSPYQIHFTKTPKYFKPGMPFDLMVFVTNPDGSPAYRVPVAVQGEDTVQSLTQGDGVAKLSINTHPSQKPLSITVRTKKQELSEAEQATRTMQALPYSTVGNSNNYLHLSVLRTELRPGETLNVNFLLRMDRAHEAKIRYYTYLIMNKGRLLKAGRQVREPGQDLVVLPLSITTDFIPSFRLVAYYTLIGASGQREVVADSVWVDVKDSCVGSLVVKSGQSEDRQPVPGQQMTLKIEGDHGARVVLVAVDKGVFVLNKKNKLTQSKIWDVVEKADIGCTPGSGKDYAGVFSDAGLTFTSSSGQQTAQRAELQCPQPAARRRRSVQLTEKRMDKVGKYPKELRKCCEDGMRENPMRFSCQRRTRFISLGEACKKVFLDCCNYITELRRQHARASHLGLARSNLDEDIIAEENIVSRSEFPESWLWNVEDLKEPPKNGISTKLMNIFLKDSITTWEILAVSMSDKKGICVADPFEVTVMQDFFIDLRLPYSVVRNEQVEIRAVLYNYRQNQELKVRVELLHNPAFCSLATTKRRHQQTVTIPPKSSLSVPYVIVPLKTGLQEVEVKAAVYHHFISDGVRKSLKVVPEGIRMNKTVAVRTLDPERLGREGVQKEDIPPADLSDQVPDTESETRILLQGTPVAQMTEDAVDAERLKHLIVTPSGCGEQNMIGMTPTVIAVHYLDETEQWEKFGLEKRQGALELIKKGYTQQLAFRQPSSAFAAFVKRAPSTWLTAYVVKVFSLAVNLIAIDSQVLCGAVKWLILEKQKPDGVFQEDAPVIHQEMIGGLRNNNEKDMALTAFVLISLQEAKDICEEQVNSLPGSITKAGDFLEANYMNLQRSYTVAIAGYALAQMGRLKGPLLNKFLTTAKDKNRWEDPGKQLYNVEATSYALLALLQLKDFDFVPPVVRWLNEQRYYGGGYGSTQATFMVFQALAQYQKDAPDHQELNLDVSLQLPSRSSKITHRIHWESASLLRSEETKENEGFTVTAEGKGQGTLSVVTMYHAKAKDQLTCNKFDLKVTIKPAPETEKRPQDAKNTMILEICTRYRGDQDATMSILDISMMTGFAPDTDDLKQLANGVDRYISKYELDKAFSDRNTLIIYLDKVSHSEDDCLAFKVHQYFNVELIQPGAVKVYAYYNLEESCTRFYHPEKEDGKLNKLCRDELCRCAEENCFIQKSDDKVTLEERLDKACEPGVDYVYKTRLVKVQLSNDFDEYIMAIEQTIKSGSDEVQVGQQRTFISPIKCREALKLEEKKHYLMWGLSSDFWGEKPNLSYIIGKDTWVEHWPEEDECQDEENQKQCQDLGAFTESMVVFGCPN

For assay [1], the target named is purified C3b (UniProt P01024). In words: ELISA; C3b coated at 5 µg/ml on MaxiSorp wells; serial dilutions of recombinant FHR-5 variants, 1 h at 20°C, DPBS with 0.05% Tween-20; detected with polyclonal goat anti-human FHR-5; both purified.
Assay [2] has as its target purified C3b (UniProt P01024). As to the kind of experiment: ELISA; C3b coated at 5 µg/ml (overnight, 4°C); patients' serum diluted 1:4 in DPBS with 1% BSA, 0.05% Tween 20, 1 h at 37°C; bound FHR-5 detected with anti-human FHR-5; normalized to a calibrator sample with only FHR-5WT; only the target purified. (ELISA stands for enzyme-linked immunosorbent assay.)

Where a chain is given by its changes, count along the chain named. Numbers in names are those of the source. These are yes or no findings as the source states them, for the method shown. Some binding calls cover weakened binding; strength is not graded here.

B1: recombinant wild-type Factor H-related protein 5 (FHR-5WT) (protein, UniProt Q9BXR6 19-569)
chain: EGTLCDFPKIHHGFLYDEEDYNPFSQVPTGEVFYYSCEYNFVSPSKSFWTRITCTEEGWSPTPKCLRMCSFPFVKNGHSESSGLIHLEGDTVQIICNTGYSLQNNEKNISCVERGWSTPPICSFTKGECHVPILEANVDAQPKKESYKVGDVLKFSCRKNLIRVGSDSVQCYQFGWSPNFPTCKGQVRSCGPPPQLSNGEVKEIRKEEYGHNEVVEYDCNPNFIINGPKKIQCVDGEWTTLPTCVEQVKTCGYIPELEYGYVQPSVPPYQHGVSVEVNCRNEYAMIGNNMITCINGIWTELPMCVATHQLKRCKIAGVNIKTLLKLSGKEFNHNSRIRYRCSDIFRYRHSVCINGKWNPEVDCTEKREQFCPPPPQIPNAQNMTTTVNYQDGEKVAVLCKENYLLPEAKEIVCKDGRWQSLPRCVESTAYCGPPPSINNGDTTSFPLSVYPPGSTVTYRCQSFYKLQGSVTVTCRNKQWSEPPRCLDPCVVSEENMNKNNIQLKWRNDGKLYAKTGDAVEFQCKFPHKAMISSPPFRAICQEGKFEYPICE
For the molecule B1, the binding result with purified C3b [1] was “binds”.

B2: native FHR-5 in the serum of patients carrying the G278S variant (protein, UniProt Q9BXR6 19-569)
chain: B1 chain with G260S
With B2, the binding entry in the assay with purified C3b [2] was “binds”.

B3: recombinant FHR-5 G278S (protein, UniProt Q9BXR6 19-569)
chain: B1 chain with G260S
As to B3, the binding entry with purified C3b [1] is recorded as “binds”.

B4: recombinant FHR-5 R356H (protein, UniProt Q9BXR6 19-569)
chain: B1 chain with R338H
For the molecule B4, in the assay with purified C3b [1], the binding result was “binds”.

B5: native wild-type FHR-5 in patients' serum (protein, UniProt Q9BXR6 19-569)
chain: B1 chain
B5: the binding result in the assay with purified C3b [2] is on record as “binds”.
